The values below come from patent US5334728A (The Trustees of The University of Pennsylvania, priority 1992, dated 1994).

Amino acid sequences for entries named in this document (tags omitted).
UniProt P61169, whole entry: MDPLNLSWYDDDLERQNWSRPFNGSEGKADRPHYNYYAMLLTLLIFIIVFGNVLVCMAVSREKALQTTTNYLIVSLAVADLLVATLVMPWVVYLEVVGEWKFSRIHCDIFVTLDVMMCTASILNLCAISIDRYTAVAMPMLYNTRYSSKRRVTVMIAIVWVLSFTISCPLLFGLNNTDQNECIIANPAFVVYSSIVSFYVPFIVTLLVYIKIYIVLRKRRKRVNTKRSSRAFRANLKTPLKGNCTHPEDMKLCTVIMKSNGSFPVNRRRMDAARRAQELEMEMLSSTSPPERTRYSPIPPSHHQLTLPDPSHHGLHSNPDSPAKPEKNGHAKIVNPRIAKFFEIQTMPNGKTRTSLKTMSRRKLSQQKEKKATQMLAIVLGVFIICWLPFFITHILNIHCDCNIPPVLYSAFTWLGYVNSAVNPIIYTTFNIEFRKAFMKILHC

Each structure is given as a SMILES string. Where only a bound is given, the exact number is not on record here.

The target of this assay is T1, dopamine D-2 receptor (Rattus norvegicus, UniProt P61169).
T1 construct: Striatal tissues were excised, pooled and homogenized in 100 volumes (w/v) of ice-cold Tris-HCl buffer; from tissue; host or cells: rat striatum (male Sprague-Dawley), twice-centrifuged membrane homogenate
Put plainly: Competition binding using [^125 I]IBF, rat striatal membranes. The note with it: [^125 I]IBF 0.15-0.30 nM, mean ± SEM of three to five determinations. Here is the method:
*0.15-0.30 nM [^125 I]IBF was incubated in the presence of the
indicated compounds in 7-11 concentrations and of membrane preparation
from rat striatum. Each value represents the mean ± SEM of three to
Male Sprague-Dawley rats (200-250 g) were decapitated, and the brains were removed and placed in ice. Striatal tissues were excised, pooled and homogenized in 100 volumes (w/v) of ice-cold Tris-HCl buffer (50 mM), pH 7.4. The homogenates were centrifuged at 20,000× g for 20 min. The resultant pellets were rehomogenized in the same buffer and centrifuged again. The final pellets were resuspended in assay buffer containing: 50 mM Tris buffer pH 7.4, 120 mM NaCl, 5 mM KCl, 2 mM CaCl2 and 1 mM MgCl2 and kept at -20° C. for the following binding assay.
The binding assays were performed by incubating 50 μl of tissue preparations containing 40-60 μg of protein with appropriate amounts of l-125 labeled ligand and competitors in a total volume of 0.2 ml of the assay buffer. After an incubation period of 15 min at 37° C. (with stirring), the samples were rapidly filtered in the cell harvester (Brandel M-24R) under vacuum through Whatman GF/B glass fiber filters pretreated with 0.2% protamine base and washed with 3×5 ml of cold (4° C.) 50 mM Tris-HCl buffer, pH 7.4. […] The filters were counted in a gamma counter (Beckman 5500) at an efficiency of 70%.

As to `CC(C)NC[C@H](O)COc1cccc2ccccc12` (racemic) [Propanolol], the Ki (usually a dissociation constant, usually derived from enzyme kinetics or from competition with a known ligand) was > 10 µM.
